## Primary screen of a compound library

Protein sequences, listed by entry. Tags and fused reporters are not part of them. Residues count along the entry.
UniProt Q8IDJ8, 1-583: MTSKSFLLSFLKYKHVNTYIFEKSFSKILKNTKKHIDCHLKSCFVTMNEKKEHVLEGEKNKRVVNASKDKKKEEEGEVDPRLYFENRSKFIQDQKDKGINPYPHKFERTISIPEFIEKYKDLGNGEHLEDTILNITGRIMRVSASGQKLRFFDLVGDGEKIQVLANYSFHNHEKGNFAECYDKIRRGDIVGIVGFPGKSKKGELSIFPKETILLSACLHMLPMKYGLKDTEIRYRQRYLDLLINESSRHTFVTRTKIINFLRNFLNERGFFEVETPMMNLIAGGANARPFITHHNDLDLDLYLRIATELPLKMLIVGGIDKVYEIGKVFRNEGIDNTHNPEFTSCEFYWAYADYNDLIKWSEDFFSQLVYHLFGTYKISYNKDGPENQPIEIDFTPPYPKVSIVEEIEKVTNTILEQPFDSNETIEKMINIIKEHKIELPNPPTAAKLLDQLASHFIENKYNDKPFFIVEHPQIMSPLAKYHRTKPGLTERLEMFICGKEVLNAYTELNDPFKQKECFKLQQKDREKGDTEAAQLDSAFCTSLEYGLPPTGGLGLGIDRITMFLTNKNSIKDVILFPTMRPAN

Toxoplasma: 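Assay of Toxoplasma gondii numbers, read through their beta-galactosidase reporter with a colour substrate. Concentration: 10 µM. The record gives no direction; the compounds picked for IC50 retests had high values, so higher reads as fewer parasites. About 67,000 compounds were tested under these conditions; 0.38% (about 260) showed 50% or more at least once.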
T. brucei: 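Whole-parasite assay of Trypanosoma brucei over 72 hours; the read-out is not stated. Tested at 30 µM. Higher reads as stronger inhibition (inferred: compounds with an IC50 in retests scored well above the rest). Values scatter widely below zero; nearly all retest evidence comes from the higher of the two concentrations used. About 64,000 compounds were tested under these conditions; 1.5% (about 940) showed 50% or more at least once.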
Leishmania in macrophages: 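Cell assay of Leishmania donovani living inside macrophages; the read-out is not stated. Concentration: 30 µM. The record gives no direction; compounds that gave an IC50 in retests scored well above the rest, so higher reads as stronger inhibition. Of about 69,000 compounds tested this way, about 1,000 (1.5%) reached 50% or more in at least one test.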
PfKRS1: 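Enzyme assay of the cytosolic lysyl-tRNA synthetase in 384-well plates, read by luminescence. Target: Lysine-tRNA ligase, Plasmodium falciparum 3D7 (UniProt Q8IDJ8). Compounds at 30 µM. Direction is inferred from only a few compounds that gave an IC50; most scored high, so higher reads as stronger inhibition. Size under these conditions: about 69,000 compounds, about 49 of them at 50% or above in at least one test.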

Results are given as percent effect. The controls that fix the scale are not given in the record; negative values are as filed. This is an unselected part of the compounds tested. Two or more numbers in one place are separate tests of the same structure; such repeats can differ widely.

SMILES: Fc1ccc(OCC2CCCO2)c(NCc2noc(C3CC3)n2)c1 (configuration not stated)
Toxoplasma: -5.31%
T. brucei: -33.88%
Leishmania in macrophages: -20.65%
PfKRS1: 1.034%

SMILES: CN(C)C(=O)c1cc(S(=O)(=O)N2CCCC2Cn2ccnc2)cn1C (configuration not stated)
Toxoplasma: 2.619%
T. brucei: -26.36%
Leishmania in macrophages: 11.56%
PfKRS1: 7.243%

SMILES: O=C(O)C(F)(F)F.[H][C@@]12CCN(CC(=O)NC)C[C@]1([H])CN(C(=O)c1cc[nH]n1)C2
Toxoplasma: 18.94%
T. brucei: -59.66%
Leishmania in macrophages: 1.774%

SMILES: C[C@@H]1CN(C(=O)c2ccsc2)C[C@]12CCN(c1ccsc1)C2=O
Toxoplasma: 1.608%
T. brucei: 49.54%
Leishmania in macrophages: 16.47%
PfKRS1: 3.849%

SMILES: Cc1ccc2c(n1)N(CCn1cccn1)CCN(C(=O)NC1CC1)C2
PfKRS1: 1.812%

SMILES: CCn1nc2c(cc1=O)CN(CC(=O)Nc1nccs1)CC2
Toxoplasma: 6.282%
T. brucei: -49.74%
Leishmania in macrophages: 2.717%
PfKRS1: -1.109%

SMILES: O=C(O)C(F)(F)F.O=C(O)C(F)(F)F.[H][C@@]12C[C@@H](Oc3ccc(C)cc3)CN1CCN(C(=O)c1cccnc1)C2
Toxoplasma: 5.118%
T. brucei: 12.8%
Leishmania in macrophages: 32.73%

SMILES: CC(C)[C@H](N)c1nnc(SCC(=O)Nc2ccc(Br)cc2)o1.Cl
Toxoplasma: 18.69%
T. brucei: -52.48%
Leishmania in macrophages: 24.25% & 8.892%

SMILES: COc1ccc(Cn2c(C3CCNCC3)cc3cccnc32)cc1.Cl
Toxoplasma: 12.58%
T. brucei: 99.58%
Leishmania in macrophages: 41.66%

SMILES: COc1cccc2c1OCC(C(=O)N1CCN(C3CCSCC3)CC1)C2 (configuration not stated)
Toxoplasma: -5.109%
T. brucei: -16.76%
Leishmania in macrophages: -10.97%
PfKRS1: 4.179%

SMILES: O=C(CCc1cscn1)N1CCCC(n2ccnc2)C1 (configuration not stated)
Toxoplasma: 3.318%
T. brucei: 17.56%
Leishmania in macrophages: 40.97%
PfKRS1: 0.4839%

SMILES: c1ncc2c(n1)CN(c1ncnc3[nH]ccc13)CC2
Toxoplasma: -3.401%
T. brucei: -32.45%
Leishmania in macrophages: 2.556%
PfKRS1: 1.726%

SMILES: CN(C)CC1(O)CCCN(c2nc(-c3ccccc3)no2)CC1 (configuration not stated)
Toxoplasma: 11.09%
T. brucei: -19.8%
Leishmania in macrophages: 31.64%
PfKRS1: 3.984%

SMILES: CC(C)c1nnc2n1CCN(C(=O)c1ccccc1OCC1CC1)C2
Toxoplasma: -7.26%
T. brucei: -25.58%
Leishmania in macrophages: 17.53%
PfKRS1: 4.116%

SMILES: O=C(CCN1CCOCC1)NC(Cc1ccsc1)c1nccs1 (configuration not stated)
Toxoplasma: 5.561%
T. brucei: -4.263%
Leishmania in macrophages: 15.48%
PfKRS1: 1.33%

SMILES: Cc1ccccc1-n1cc(CNC(=O)CC2C(=O)NCCN2C)cn1 (configuration not stated)
Toxoplasma: 18.94%
T. brucei: -55.94%
Leishmania in macrophages: 22.94%
PfKRS1: 2.479%

SMILES: COc1cc(C(=O)N2CCCS2(=O)=O)cc(Cl)c1OC
Toxoplasma: 10.43%
T. brucei: -12.01%
Leishmania in macrophages: 7.608%
PfKRS1: 2.979%

SMILES: Cc1cc(C)c2c(c1)NC(=O)C2CC(=O)O (configuration not stated)
Toxoplasma: 16.36%
T. brucei: -12.72%
Leishmania in macrophages: 31.79%
PfKRS1: 0.4798%

SMILES: CN(C)CCNC(=O)c1ccc(OC2CCN(CC3CC3)CC2)c(Cl)c1
Toxoplasma: 13.62%
T. brucei: -13.78%
Leishmania in macrophages: 23.94%
PfKRS1: -1.435%

SMILES: O=C(NCCN1CCNCC1)c1c(O)c2ccccc2[nH]c1=O
Toxoplasma: -5.14%
T. brucei: -21.08%
Leishmania in macrophages: -61.77%
PfKRS1: -2.554%

The last 2 entries again:

With CN(C)CCNC(=O)c1ccc(OC2CCN(CC3CC3)CC2)c(Cl)c1 the screen gave Toxoplasma: 13.62%; T. brucei: -13.78%; Leishmania in macrophages: 23.94%; PfKRS1: -1.435%.
With O=C(NCCN1CCNCC1)c1c(O)c2ccccc2[nH]c1=O the screen gave Toxoplasma: -5.14%; T. brucei: -21.08%; Leishmania in macrophages: -61.77%; PfKRS1: -2.554%.

From ChEMBL document CHEMBL3988442, “University of Dundee, Small-Polar-MMV Screening Library” (2021).